The source of these data is article PMC3991326, “Optimal Translational Termination Requires C4 Lysyl Hydroxylation of eRF1” (Molecular Cell, 2014).

Chains of the proteins cited; added tags and fusions are not shown.
UniProt Q9NWT6: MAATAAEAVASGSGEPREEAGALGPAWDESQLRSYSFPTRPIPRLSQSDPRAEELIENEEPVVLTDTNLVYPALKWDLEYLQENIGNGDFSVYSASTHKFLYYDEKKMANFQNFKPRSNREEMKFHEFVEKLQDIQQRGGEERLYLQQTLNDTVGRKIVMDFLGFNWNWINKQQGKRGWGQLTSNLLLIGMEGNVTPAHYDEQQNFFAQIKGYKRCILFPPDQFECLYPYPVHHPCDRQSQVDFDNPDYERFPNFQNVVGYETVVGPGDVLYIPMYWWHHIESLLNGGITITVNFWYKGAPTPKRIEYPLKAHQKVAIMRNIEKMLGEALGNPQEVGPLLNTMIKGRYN
UniProt P15170: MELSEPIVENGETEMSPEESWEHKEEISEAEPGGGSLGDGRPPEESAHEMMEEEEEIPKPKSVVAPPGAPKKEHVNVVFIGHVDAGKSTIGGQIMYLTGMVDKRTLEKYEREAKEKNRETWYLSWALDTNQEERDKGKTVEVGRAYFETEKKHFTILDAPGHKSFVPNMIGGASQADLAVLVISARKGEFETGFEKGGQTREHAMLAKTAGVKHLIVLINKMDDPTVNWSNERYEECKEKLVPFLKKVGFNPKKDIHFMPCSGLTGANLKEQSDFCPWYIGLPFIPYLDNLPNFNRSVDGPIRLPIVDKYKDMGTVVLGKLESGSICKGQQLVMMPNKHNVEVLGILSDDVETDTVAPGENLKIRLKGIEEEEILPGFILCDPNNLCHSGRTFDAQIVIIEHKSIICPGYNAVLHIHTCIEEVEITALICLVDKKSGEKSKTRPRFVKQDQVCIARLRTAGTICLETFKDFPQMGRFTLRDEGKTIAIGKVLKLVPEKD

Experiment [1] deals with T1, FLAG-Jmjd4 H189A (inactive mutant, defective Fe(II) binding) (human) (UniProt Q9H9V9).
T1 sequence: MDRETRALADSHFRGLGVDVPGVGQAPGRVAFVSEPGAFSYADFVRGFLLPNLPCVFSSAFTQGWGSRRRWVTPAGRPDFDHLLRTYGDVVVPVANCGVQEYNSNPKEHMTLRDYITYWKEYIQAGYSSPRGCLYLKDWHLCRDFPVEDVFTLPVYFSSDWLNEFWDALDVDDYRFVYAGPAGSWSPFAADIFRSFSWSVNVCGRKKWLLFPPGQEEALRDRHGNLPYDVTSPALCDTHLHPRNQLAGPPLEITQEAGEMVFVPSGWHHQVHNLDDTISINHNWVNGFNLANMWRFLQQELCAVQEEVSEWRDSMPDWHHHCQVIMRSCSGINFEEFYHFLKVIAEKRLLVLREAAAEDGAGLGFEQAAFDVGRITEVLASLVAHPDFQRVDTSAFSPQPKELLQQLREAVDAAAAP
Nature of the experiment: co-IP; anti-FLAG immunoprecipitates of cell extracts from HEK293T cell lines, immunoblotted for endogenous eRF1 and eRF3a. For orientation: Immunoblotting shows a protein as a band on a membrane.

The target of experiment [2] is FIH (factor inhibiting HIF), expressed in a HEK293T cell line as control of the anti-FLAG immunoprecipitation (UniProt Q9NWT6). Described as above.

These are yes or no findings as the source states them, for the method shown. Binding seen in cells or lysates may run through a third protein. For some assays here: Where a sequence is shown, tags or fusion partners need not be part of it.

On to “eukaryotic release factor 3a (eRF3a), endogenous (from UniProt P15170 1-499)”, for which the binding entry in experiment [1] and in experiment [2] was “no binding” throughout.
